Screen size: about 1,300 compounds; about 65 (5%) were called active.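 The calls were made as follows: active = growth inhibition reaching a set limit at one or more tested doses; inactive = the rest.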 Some of the results follow. Entries with a potency or affinity are not part of this list.
Assay: growth inhibition of wild-type E. coli, dose response, BW25113 wild type, OD615 (AID 638)
Conditions: at 100 µM (top of the series) unless noted
How it was run: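 assay system = wild-type Escherichia coli strain BW25113 growth | medium = Kanamycin-supplemented LB broth | measured by = optical density (absorbance) at 615 nm | timing = bacterial exposure to compound 20 h at 37 °C | doses = compound concentration series | measure = IC50 from 4-parameter logistic, bounds fixed 0–100% | controls = chloramphenicol 30 µM control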
In the case of `O=C(CSc1nnc(Cc2cccs2)n1Cc1ccco1)Nc1ccc(Br)cc1`, the growth inhibition was inactive: 8.53%. In the case of `CCOC(=O)C1CN(c2cc3c(cc2F)c(=O)c(C(=O)O)cn3CC)OC1C(=O)OCC` (stereo not drawn), the growth inhibition was inactive: 3.92%. For `Cc1cccc(N(C)C(=O)c2cc3cc4ccc(C)cc4nc3o2)c1`, the growth inhibition was inactive: -7.38%. In the case of `O=C(NCc1ccco1)c1ccc(S(=O)(=O)N2CCCc3ccccc32)cc1`, the growth inhibition was inactive: -13.8%. With `Cc1csc(NC(=O)CSc2ncnc3c2cnn3-c2ccccc2Cl)n1` the growth inhibition was inactive: 12.5%. With `COc1cccc(NC(=O)N2CCN(c3cccc(C)c3C)CC2)c1` the growth inhibition was inactive: -4.92%. For `Oc1ccccc1-c1nc(NCC2CCCO2)c2ccccc2n1` (stereo not drawn), the growth inhibition was inactive: 5.18%. With `COc1cc(NS(=O)(=O)c2ccc(Br)cc2)c(OC)cc1NC(=O)c1ccco1` the growth inhibition was inactive: -12%. In the case of `O=C(COc1ccc(Cl)cc1)Nc1nnc(-c2ccc3c(c2)CCCC3)o1`, the growth inhibition was inactive: -13.5%. With `CCCCCc1c(C)nc(Nc2ccccc2)[nH]c1=O` the growth inhibition was inactive: 1.06%. For `O=c1cc(O)c2c(=O)n3c4c(cccc4c2o1)CCC3`, the growth inhibition was inactive: 0.39%. With `Clc1ccc(Cn2ncc3c(N4CCCCC4)ncnc32)c(Cl)c1` the growth inhibition was inactive: 0.78%. With `COC(=O)c1ccc(CSc2nc3ccccc3o2)cc1` the growth inhibition was inactive: 10.6%. With `O=C1c2[nH]nc(-c3ccccc3O)c2C(c2cccc(Cl)c2)N1CC1CCCO1` (stereo not drawn) the growth inhibition was inactive: 3.79%. With `Cc1noc(C)c1C(=O)Nc1sc(C)c(-c2ccccc2)c1C#N` the growth inhibition was inactive: 8.14%. For `CCCCC(=O)c1c(O)c2ccccc2oc1=O`, the growth inhibition was inactive: -1.58%. For `Cc1ccc(C(c2nnnn2CCc2ccccc2)N2CCSCC2)cc1` (stereo not drawn), the growth inhibition was inactive: -2.36%. In the case of `CCc1nc2sc3ccccc3c(=O)c2c(=O)n1Cc1ccco1`, the growth inhibition was inactive: -1.58%. For `O=C(Nc1cccc(S(=O)(=O)c2cccc(NC(=O)C3CC3)c2)c1)C1CC1`, the growth inhibition was inactive: 8.8%. For `COc1cc(-c2nc(-c3cccc(C)c3)no2)cc(OC)c1OC`, the growth inhibition was inactive: -1.68%. For `O=C(NCc1ccc2c(c1)OCO2)c1ccc(COc2cccc(Cl)c2)o1`, the growth inhibition was inactive: -1.19%. In the case of `Cc1cc(-c2ccco2)c(C#N)c2nc3ccccc3n12`, the growth inhibition was inactive: -4.65%. In the case of `c1ccc(-c2nc(N3CCCCCC3)c3ccccc3n2)nc1`, the growth inhibition was inactive: 17.1% [at 50 µM]. With `C=CCn1c(SCC(=O)Nc2ccc3c(c2)CCC3)nnc1-c1cccs1` the growth inhibition was inactive: -1.56%. With `Cc1cccc(N2C(N)=C(C#N)C(C#N)(C#N)C2c2ccccc2)c1` (stereo not drawn) the growth inhibition was inactive: -0.76%. For `CCN1C(=O)CSC1=NC1C2CC3CC(C2)CC1C3` (stereo not drawn), the growth inhibition was inactive: 9.49%. With `Cc1cc(OCCCC(=O)N2CCCCC2)cc(C)c1Cl` the growth inhibition was inactive: -2.2%. With `CCc1nc2ccccc2c(=O)n1NC(=O)c1c(O)c2cccc3c2n(c1=O)CCC3` the growth inhibition was inactive: -13.7%. With `CC(=O)c1ccccc1OCC(O)CN1CCN(C(c2ccccc2)c2ccccc2)CC1` (stereo not drawn) the growth inhibition was inactive: -7.24%. In the case of `CCOC(=O)c1c(NC(=O)CN2CCCCC2)sc2c1CCN(C(=O)OCC)C2`, the growth inhibition was inactive: -12.4%. For `Oc1ccc(-c2[nH]ncc2-c2ccc(Cl)cc2)c(O)c1`, the growth inhibition was inactive: 17.8%. In the case of `CCN1/C(=C(\O)c2ccccc2)C(=O)c2ccccc2S1(=O)=O`, the growth inhibition was inactive: -3.95%. With `O=C(Nc1nnc(-c2ccc(Cl)cc2)o1)c1ccccc1Br` the growth inhibition was inactive: 5.98% [at 50 µM]. With `N#Cc1nc(-c2ccc(OCc3ccccc3)cc2)oc1NCCCn1ccnc1` the growth inhibition was inactive: 18.4%. For `CC1Cc2cc(-c3csc(NC(=O)Cc4cccs4)n3)ccc2N1S(C)(=O)=O` (stereo not drawn), the growth inhibition was inactive: -20.5%. In the case of `CCOC(=O)C1=C(C)NC(SCC(=O)Nc2cc(C)on2)=C(C#N)C1c1cccs1` (stereo not drawn), the growth inhibition was inactive: 3.97%. With `Cc1ccc(C)c(C(=O)CSc2n[nH]c(-c3ccncc3)n2)c1` the growth inhibition was inactive: 6.84%. With `CCN(c1cccc(C(F)(F)F)c1)S(=O)(=O)c1ccc2c(c1)CCN2C(=O)C1CC1` the growth inhibition was inactive: 4.36%. With `Brc1cccc(-c2n[nH]c(-c3ccccc3)n2)c1` the growth inhibition was inactive: -2.8%. In the case of `O=C(COc1ccc(Cl)cc1)Nc1nc(-c2cccs2)cs1`, the growth inhibition was inactive: -4.14%. In the case of `CCn1cc(C(=O)O)c(=O)c2cc(OC)ccc21`, the growth inhibition was inactive: 19.6%. With `COc1ccc2c(c1)sc1nc(-c3ccccc3)cn12` the growth inhibition was inactive: -8.31%. For `CSc1ccc(-c2cc(=O)c3ccccc3o2)cc1`, the growth inhibition was inactive: 10.8%. For `O=C(Nc1ccccc1N1CCCCC1)c1cccs1`, the growth inhibition was inactive: 1.03%. For `CCOc1ccccc1C(=O)NC(C(=O)OCC(=O)Nc1nnc(-c2ccccc2)o1)C(C)C` (stereo not drawn), the growth inhibition was inactive: 4.14%. For `Cc1ccc(-c2nnc(SCC(=O)N3CC(C)CC(C)C3)o2)cc1C` (stereo not drawn), the growth inhibition was inactive: 3.62%. For `CCCc1ccc(Oc2cn[nH]c2-c2ccc(O)c(C)c2O)cc1`, the growth inhibition was inactive: 10.4%. In the case of `Cn1c(-c2ccccc2)cc2c3no[n+]([O-])c3ccc21`, the growth inhibition was inactive: -8.83%. With `Cc1c(C(=O)N2CCCCC2)oc2ccc(S(=O)(=O)N3CC(C)CC(C)C3)cc12` (stereo not drawn) the growth inhibition was inactive: -3.91%. For `Cc1ccc(/C(O)=C2\C(=O)C(=O)N(c3cc(C)on3)C2c2cccc(Br)c2)cc1` (stereo not drawn), the growth inhibition was inactive: 3.58%. In the case of `COc1cccc(N2CC(C(=O)Nc3ccc(C(=O)OC(C)C)cc3)CC2=O)c1` (stereo not drawn), the growth inhibition was inactive: 5.31%. For `C=C(C)COc1ccc(-c2[nH]ncc2Oc2ccccc2OCC)c(O)c1`, the growth inhibition was inactive: 1.48%. For `N#Cc1nc(Cc2cccc3ccccc23)oc1NCc1ccc(F)cc1`, the growth inhibition was active: 20%. For `CCc1c(C(=O)Nc2ncn(Cc3cccc(C)c3)n2)csc1C`, the growth inhibition was inactive: 5.41%. In the case of `C#CCSc1nnc(-c2cccc3ccccc23)o1`, the growth inhibition was inactive: 5.43%. In the case of `COC(=O)c1ccc(NC(=O)CN2CCN(c3cccc(Cl)c3)CC2)cc1`, the growth inhibition was inactive: -2.21%. For `CCN(C1CCCCC1)S(=O)(=O)c1ccc(OC)c(C)c1`, the growth inhibition was inactive: 18.2%. With `O=C(COc1c(F)c(F)c(C(F)(F)F)c(F)c1F)Nc1ccc(N2CCOCC2)c(Cl)c1` the growth inhibition was inactive: 13.3%. With `Cc1cccnc1NC(=O)c1c(O)c2cccc3c2n(c1=O)CCC3` the growth inhibition was inactive: 0.91%. In the case of `O=S(=O)(Nc1nnc(-c2ccccc2)s1)c1ccc(Cl)cc1`, the growth inhibition was inactive: 0.26%. In the case of `Cc1ccc(-c2noc(CCC(=O)N3CCCc4ccccc43)n2)cc1`, the growth inhibition was inactive: 8.79%. With `Clc1ccc(OCc2nn3c(C4CCCCC4)nnc3s2)cc1` the growth inhibition was inactive: 12.1%. In the case of `COc1ccc(C(C(O)C(=O)c2c[nH]c3ccccc23)N2CCN(c3ccccc3)CC2)cc1` (stereo not drawn), the growth inhibition was inactive: 10.2%. For `O=C(c1ccccc1CCc1ccccc1)N1CCN(c2ccccn2)CC1`, the growth inhibition was inactive: 2.12%. In the case of `CCC(C)(C)n1nnnc1C(c1cc2ccc(OC)cc2[nH]c1=O)N1CCc2ccccc2C1` (stereo not drawn), the growth inhibition was inactive: -10.1%. In the case of `Cc1c(C(=O)OC2CCCC2C)[nH]c2c1C(=O)CCC2` (stereo not drawn), the growth inhibition was inactive: 12%. In the case of `CCN(C(=O)c1ccc(C(C)(C)C)cc1)c1nnc(Cn2nnc3ccccc32)s1`, the growth inhibition was inactive: -8.83%. With `CCSc1nnc(NC(=O)CSc2nccn2-c2cccc(C)c2C)s1` the growth inhibition was inactive: 2.99%. For `O=C(NCC1CCCO1)c1sc(=S)n2c1[nH]c(=O)c1ccc(C(=O)N3CCCCC3)cc12` (stereo not drawn), the growth inhibition was inactive: 5.82%. With `CCOC(=O)c1cccc2c1-c1ccccc1/C2=N/O` the growth inhibition was inactive: -9.29%. With `Cc1ccc(Nc2nc(CSc3nnnn3-c3ccccc3)cs2)cc1` the growth inhibition was inactive: -16.8%. With `CCC(Oc1ccccc1)C(=O)Nc1ccc(-c2nnc(-c3ccco3)o2)cc1` (stereo not drawn) the growth inhibition was inactive: -9.73%. For `O=C(CCC1CCCC1)c1c(O)c2ccccc2oc1=O`, the growth inhibition was inactive: 6.25%. With `COc1ccc(CCN2C(=O)c3[nH]nc(-c4ccccc4O)c3C2c2ccc(C)cc2)cc1OC` (stereo not drawn) the growth inhibition was inactive: -7.61%. For `Cc1cc(S(=O)(=O)N2CCN(c3ccccc3C)CC2)ccc1F`, the growth inhibition was inactive: -8.19%. In the case of `CCOc1cccc(NC(=O)C2CC(=O)N(C)C(=Nc3cccc(F)c3)S2)c1` (stereo not drawn), the growth inhibition was inactive: -6.98%. With `COc1ccc(CCNc2oc(COc3ccc(F)cc3)nc2C#N)cc1` the growth inhibition was inactive: -4.26%. With `N#Cc1nc(COc2ccc(-c3ccccc3)cc2)oc1NCc1cccnc1` the growth inhibition was inactive: -10.3%. For `CNc1nc(Nc2ccc(C(C)=O)cc2)nc(OC(C(F)(F)F)C(F)(F)F)n1`, the growth inhibition was inactive: 3.95%. With `COCCCN1C(=O)c2[nH]nc(-c3ccccc3O)c2C1c1ccc(Cl)cc1` (stereo not drawn) the growth inhibition was inactive: 5.26%. In the case of `O=c1[nH]c(NCCCO)nc2c1C1(CCCC1)Cc1ccccc1-2`, the growth inhibition was inactive: 2.85%. In the case of `COc1ccc(OC)c(Nc2nc(-c3cccs3)cs2)c1`, the growth inhibition was inactive: -6.46%. In the case of `COc1ccccc1N1CCN(C(=O)c2cc(-c3ccc(C)cc3)on2)CC1`, the growth inhibition was inactive: -0.92%. With `CCC(c1nnnn1C1CCCCC1)N(Cc1ccco1)Cc1cc2ccc(OC)cc2[nH]c1=O` (stereo not drawn) the growth inhibition was inactive: -1.41%. In the case of `Cc1ccccc1CSc1nc2n(n1)C(c1cccs1)C1=C(CCCC1=O)N2` (stereo not drawn), the growth inhibition was inactive: -14.8%. For `COc1ccc(Cn2c(=O)sc3ccccc32)cc1`, the growth inhibition was inactive: 10.8%. In the case of `Cc1cccc(N2CCN(C(=O)Cc3c(C(=O)O)[nH]c4ccc(Cl)cc34)CC2)c1C`, the growth inhibition was inactive: -0.2%. With `O=C(c1noc2c1CCc1ccccc1-2)N1CCCc2ccccc21` the growth inhibition was inactive: -6.98%. In the case of `COc1ccc(C2CC(c3ccccc3)n3nc(NC(=O)c4cccs4)nc3N2)cc1` (stereo not drawn), the growth inhibition was inactive: 3.83%. With `O=C(NC1CCCCCCC1)c1ccccc1O` the growth inhibition was inactive: 4.81%. For `CCOc1ccc(NS(=O)(=O)c2ccc(SC)cc2)cc1`, the growth inhibition was inactive: 11.9%. For `Cc1ccc(C)n1-n1cnc2sc(-c3ccccc3)cc2c1=O`, the growth inhibition was inactive: -14.3%. For `CC1=C(C(=O)OC(C)C)C(c2c[nH]c3ccccc23)n2ncnc2N1` (stereo not drawn), the growth inhibition was inactive: -1.8%.

From PubChem BioAssay AID638 (SRMLSC, 2007)
